Experimental data reported in the supplement of paper PMC12872613.
Counter-ions that a name gives are not always drawn. The list shows a part of the results. Cut-off read from the data, not from the text of the source: active = 0.7 or more and inactive = the rest. Many values rest on one well or one pass, so single values are uncertain.

These compounds were tested on MiaPaCa-2 CLSA-25 (assay: cell death relative to DMSO vehicle (fraction); higher = more cytotoxic). Conditions: 5 µM; treatment time 48 h; medium cystine 25 µM.
In the case of `O=C(Cc1ccccc1)Nc1nnc(CCSCCc2nnc(NC(=O)Cc3ccccc3)s2)s1`, the cell death was inactive: 0.111.
With `NCCCCN` [1,4-Diaminobutane] the cell death was inactive: 0.0551.
For `C[C@H]1CO[C@@H]2Cn3cc(C(=O)NCc4ccc(F)cc4F)c(=O)c(O)c3C(=O)N12` [Cabotegravir], the cell death was inactive: 0.233.
`NC(=O)c1ccc[n+]([C@@H]2O[C@H](COP(=O)([O-])OP(=O)(O)OC[C@H]3O[C@@H](n4cnc5c(N)ncnc54)[C@H](O)[C@@H]3O)[C@@H](O)[C@H]2O)c1` was tested, and the cell death was inactive: 0.17.
With `COc1c(C)c2c(c(O)c1C/C=C(\C)CCC(=O)OCCN1CCOCC1)C(=O)OC2` [Mycophenolate Mofetil] the cell death was inactive: 0.0851.
In the case of `CCc1nc(N)nc(N)c1-c1ccc(Cl)cc1` [Pyrimethamine], the cell death was inactive: 0.236.
With `O=Cc1ccc(O)cc1` [p-Hydroxybenzaldehyde] the cell death was inactive: 0.0364.
`CC(C)(O)CNc1nc(Nc2ccnc(C(F)(F)F)c2)nc(-c2cccc(C(F)(F)F)n2)n1` [Enasidenib] was tested, and the cell death was inactive: 0.163.
With `O=C(O)c1ccc(-c2c[nH]c3ncc(-c4ccccc4)cc23)cc1C1CCCC1` the cell death was inactive: 0.166.
For `NS(=O)(=O)c1cc(Cl)c(Cl)c(S(N)(=O)=O)c1` [Dichlorphenamide], the cell death was active: 0.738.
`CC(C)(C)c1ccc(-c2nc3ccccc3[nH]2)cc1` was tested, and the cell death was inactive: 0.644.
With `O=C1c2ccccc2C(=O)C1c1ccccc1` [Phenylindione] the cell death was inactive: 0.00508.
`C=C(C)[C@@H]1CC[C@]2(CO)CC[C@]3(C)[C@H](CC[C@@H]4[C@@]5(C)CC[C@H](O)C(C)(C)[C@@H]5CC[C@]43C)[C@@H]12` [Betulin] was tested, and the cell death was inactive: 0.134.
For `CCC(C)n1ncn(-c2ccc(N3CCN(c4ccc(OCC5COC(Cn6cncn6)(c6ccc(Cl)cc6Cl)O5)cc4)CC3)cc2)c1=O` (stereo not drawn) [Itraconazole], the cell death was active: 0.761.
`C[C@]12C=CC(=O)C=C1CC[C@@H]1[C@@H]2[C@@H](O)C[C@@]2(C)[C@H]1CC[C@]2(O)C(=O)CO` [Prednisolone] was tested, and the cell death was inactive: 0.161.
For `O=C(O)c1cc(=O)[nH]c(=O)[nH]1` [Orotic acid], the cell death was inactive: 0.084.
`Nc1c(Br)cc(Br)cc1CN[C@H]1CC[C@H](O)CC1` [Ambroxol] was tested, and the cell death was inactive: 0.183.
For `O=S(=O)(O)Oc1c[nH]c2ccccc12` [Indoxyl sulfate potassium salt], the cell death was inactive: 0.0643.
`OC[C@H]1O[C@@H](n2cnc3c2N=CNC[C@H]3O)C[C@@H]1O` [Pentostatin] was tested, and the cell death was inactive: 0.163.
`C[C@H](NC(=O)C(=O)Nc1ccccc1C(C)(C)C)C(=O)N[C@@H](CC(=O)O)C(=O)COc1c(F)c(F)cc(F)c1F` [Emricasan] was tested, and the cell death was inactive: 0.45.
`Clc1ccc(Cn2c(CN3CCCC3)nc3ccccc32)cc1` [Clemizole hydrochloride] was tested, and the cell death was inactive: 0.212.
`CC1(C)O[C@@H]2[C@@H](CO[C@@]3(COS(N)(=O)=O)OC(C)(C)O[C@@H]23)O1` [Topiramate] was tested, and the cell death was inactive: 0.145.
`C#CCN[C@@H]1CCc2ccccc21` [Rasagiline Mesylate] was tested, and the cell death was inactive: 0.0372.
`Cc1c(-c2cnccn2)ssc1=S` [Oltipraz] was tested, and the cell death was inactive: 0.317.
`C[C@@H](C(=O)O)c1ccc(-c2ccccc2)c(F)c1` [R-flurbiprofen] was tested, and the cell death was inactive: 0.0976.
In the case of `CCOC(=O)[C@H](CCc1ccccc1)N[C@@H](C)C(=O)N1[C@H](C(=O)O)C[C@@H]2CCC[C@@H]21` [Ramipril], the cell death was inactive: 0.0326.
`O=C(O)CC1CC(c2ccccc2)=NO1` (stereo not drawn) was tested, and the cell death was inactive: 0.209.
`CC(C)NCC(O)c1ccc(O)c(O)c1` (stereo not drawn) [Isoprenaline hydrochloride] was tested, and the cell death was inactive: 0.368.
